Measurements reported in the supplement of paper PMC8728848.
The list shows a part of the results.

Assays:
Test in all cases: glycan array binding signal (z-score within array); higher = stronger binding
Conditions in all cases: glycan notation: IUPAC condensed, linker removed
[1] = target: Gal(b1-4)GlcNAc(b1-2)[Gal(b1-4)GlcNAc(b1-4)]Man(a1-3)[Gal(b1-4)GlcNAc(b1-2)[Gal(b1-4)GlcNAc(b1-6)]Man(a1-6)]Man(b1-4)GlcNAc(b1-4)GlcNAc
Outline: (§1)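 The binding signal is a Z-score computed within each array. Data were drawn from 3228 arrays in the Consortium for Functional Glycomics database, restricted to those with a known protein sequence. Scores were averaged over arrays of the same protein sequence at different concentrations or buffers, and over linkers, and negative values can be taken as non-binding.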

[2] = target: Gal(b1-4)GlcNAc(b1-2)[Gal(b1-4)GlcNAc(b1-4)]Man(a1-3)[GlcNAc(b1-4)][Gal(b1-4)GlcNAc(b1-2)Man(a1-6)]Man(b1-4)GlcNAc(b1-4)GlcNAc
Outline: as §1

[3] = target: Gal(b1-4)GlcNAc(b1-2)[Gal(b1-4)GlcNAc(b1-6)]Man(a1-6)[GlcNAc(b1-4)][Gal(b1-4)GlcNAc(b1-2)Man(a1-3)]Man(b1-4)GlcNAc(b1-4)GlcNAc
Outline: as §1

[4] = target: Gal(b1-4)GlcNAc(b1-3)Gal(b1-3)GlcNAc
Outline: as §1

[5] = target: Gal(b1-4)GlcNAc(b1-3)Gal(b1-4)Glc
Outline: as §1

[6] = target: Gal(b1-4)GlcNAc(b1-3)Gal(b1-4)GlcNAc
Outline: as §1

[7] = target: Gal(b1-4)GlcNAc(b1-3)Gal(b1-4)GlcNAc(b1-3)Gal(b1-4)GlcNAc
Outline: as §1

[8] = target: Gal(b1-4)GlcNAc(b1-3)Gal(b1-4)[Fuc(a1-3)GlcNAc(b1-6)]Gal(b1-4)Glc
Outline: as §1

[9] = target: Gal(b1-4)GlcNAc(b1-3)Gal(b1-4)[Fuc(a1-3)]GlcNAc(b1-3)Gal(b1-4)[Fuc(a1-3)]GlcNAc
Outline: as §1

[10] = target: Gal(b1-4)GlcNAc(b1-3)GalNAc
Outline: as §1

[11] = target: Gal(b1-4)GlcNAc(b1-3)[Gal(b1-4)GlcNAc(b1-6)]Gal(b1-4)GlcNAc
Outline: as §1

[12] = target: Gal(b1-4)GlcNAc(b1-3)[Gal(b1-4)GlcNAc(b1-6)]GalNAc
Outline: as §1

[13] = target: Gal(b1-4)GlcNAc(b1-3)[GlcNAc(b1-6)]Gal(b1-4)GlcNAc
Outline: as §1

[14] = target: Gal(b1-4)GlcNAc(b1-6)Gal(b1-4)GlcNAc
Outline: as §1

[15] = target: Gal(b1-4)GlcNAc(b1-6)GalNAc
Outline: as §1

[16] = target: Gal(b1-4)GlcNAc(b1-6)[Gal(b1-3)]GalNAc
Outline: as §1

Gal(b1-6)Gal = target: Gal(b1-6)Gal
Outline: as §1

Gal3S(b1-3)GalNAc = target: Gal3S(b1-3)GalNAc
Outline: as §1

Gal3S(b1-3)GlcNAc = target: Gal3S(b1-3)GlcNAc
Outline: as §1

[17] = target: Gal3S(b1-3)[Fuc(a1-4)]GlcNAc
Outline: as §1

Gal3S(b1-4)Glc = target: Gal3S(b1-4)Glc
Outline: as §1

Gal3S(b1-4)Glc6S = target: Gal3S(b1-4)Glc6S
Outline: as §1

Gal3S(b1-4)GlcNAc = target: Gal3S(b1-4)GlcNAc
Outline: as §1

Gal3S(b1-4)GlcNAc6S = target: Gal3S(b1-4)GlcNAc6S
Outline: as §1

[18] = target: Gal3S(b1-4)[Fuc(a1-3)]Glc
Outline: as §1

[19] = target: Gal3S(b1-4)[Fuc(a1-3)]Glc6S
Outline: as §1

Gal3S4S(b1-4)GlcNAc = target: Gal3S4S(b1-4)GlcNAc
Outline: as §1

Gal3S6S(b1-4)GlcNAc = target: Gal3S6S(b1-4)GlcNAc
Outline: as §1

Gal3S6S(b1-4)GlcNAc6S = target: Gal3S6S(b1-4)GlcNAc6S
Outline: as §1

Gal4S(b1-4)GlcNAc = target: Gal4S(b1-4)GlcNAc
Outline: as §1

Gal4S6S(b1-4)GlcNAc = target: Gal4S6S(b1-4)GlcNAc
Outline: as §1

Gal6S(b1-3)GlcNAc = target: Gal6S(b1-3)GlcNAc
Outline: as §1

Gal6S(b1-3)GlcNAc6S = target: Gal6S(b1-3)GlcNAc6S
Outline: as §1

Gal6S(b1-4)Glc = target: Gal6S(b1-4)Glc
Outline: as §1

Gal6S(b1-4)Glc6S = target: Gal6S(b1-4)Glc6S
Outline: as §1

Gal6S(b1-4)GlcNAc = target: Gal6S(b1-4)GlcNAc
Outline: as §1

Gal6S(b1-4)GlcNAc6S = target: Gal6S(b1-4)GlcNAc6S
Outline: as §1

GalNAc(a1-3)Gal = target: GalNAc(a1-3)Gal
Outline: as §1

GalNAc(a1-3)GalNAc = target: GalNAc(a1-3)GalNAc
Outline: as §1

[20] = target: GalNAc(a1-3)GalNAc(a1-3)Gal(a1-4)Gal(b1-4)GlcNAc
Outline: as §1

[21] = target: GalNAc(a1-3)GalNAc(b1-3)Gal(a1-4)Gal(b1-4)Glc
Outline: as §1

GalNAc(b1-3)Gal = target: GalNAc(b1-3)Gal
Outline: as §1

[22] = target: GalNAc(b1-3)Gal(a1-4)Gal(b1-4)GlcNAc
Outline: as §1

[23] = target: GalNAc(b1-3)Gal(a1-4)Gal(b1-4)GlcNAc(b1-3)Gal(b1-4)Glc
Outline: as §1

[24] = target: GalNAc(b1-3)Gal(a1-6)Gal(b1-4)Glc
Outline: as §1

B1: pullulanase (Streptococcus pyogenes), Q8KLP1 (protein)
chain: MKKKVNQGSKRYQYLLKKWGIGFVIAATGTVMLGCIPSILTHQVAAKTIVGLARDEAQQGDGNAKSGDGFQSSSKEAKPVLDSSSANPASIAEHHLRMHFKTLPAGESLGSLGLWVWGDVDQPSKDWPNGAITMTKAKKDDYGYYLDVPLAAKHRQQVSYLINNKAGENLSKDQHIPLLTPKMNEVWIDENYHAHAYRPLKKGYLRINYHNQSGHYDNLAVWTFKDVKTPTTDWPNGLDLSHKGPYGAYVDVPLKEGANEIGFLILDKSKTGDAIKVQPKDYLFKELDNHTQVFVKDTDPKVYNNPYYIDQVSLKGAEQTTPNEIKAIFTTLDGLDEDAVKQNIKITDKAGKTVAIDELTLDKDKSVMTLKGDFKAQGAVYTVTFGEVSQVARQSWQLKDKLYAYDGELGATLAKDGSVDLALWSPSADSVKVVVYDKQDQTKVVGQADLTKSDKGVWRAHLTSDSVKGISDYTGYYYLYEITRGQEKVMVLDPYAKSLAAWNDATATDDIKTAKAAFIDPSKLGPTGLDFAKINNFKKREDAIIYEAHVRDFTSDKALEGKLTHPFGTFSAFVEQLDYLKDLGVTHVQLLPVLSYFYANELDKTRSTAYTSSDNNYNWGYDPQHYFALSGMYSANPNDPALRIAELKNLVNEIHKRGMGVIFDVVYNHTARTYLFEDLEPNYYHFMNADGTARESFGGGRLGTTHAMSRRILVDSITYLTREFKVDGFRFDMMGDHDAAAIEQAFKAAKAINPNTIMIGEGWRTYQGDEGKKEIAADQDWMKATNTVGVFSDDIRNTLKSGFPNEGTAAFITGGAKNLEGLFKTIKAQPSNFEADAPGDVVQYIAAHDNLTLHDVIAKSINKDPKVAEEEIHKRIRLGNTMILTAQGTAFIHSGQEYGRTKQLLNPDYKTKVSDDKVPNKATLIDAVAQYPYFIHDSYDSSDAVNHFDWAKATDSIAHPISNQTKAYTQGLIALRRSTDAFTKATKAEVDRDVTLITQAGQDGIQQEDLIMGYQTVASNGDRYAVFVNADNKTRKVVLPQAYRYLLGAQVLADAEQVGVTAIAKPKGVQFTKEGLTIDGLTALVLKVSSKTANPSQQKSQTDNHQTKTPDGSKDLDKSLMTRPKRAKTNQKLPKTGEAPSKGLLAAGVALLLLAISLLMKRQKD
glycan array binding signal (z-score) [1]: -0.602
glycan array binding signal (z-score) [2]: 0.829
glycan array binding signal (z-score) [3]: 0.194
glycan array binding signal (z-score) [4]: 0.206
glycan array binding signal (z-score) [5]: 0.117
glycan array binding signal (z-score) [6]: -0.647
glycan array binding signal (z-score) [7]: 0.989
glycan array binding signal (z-score) [8]: -0.926
glycan array binding signal (z-score) [9]: 0.33
glycan array binding signal (z-score) [10]: -0.565
glycan array binding signal (z-score) [11]: -0.911
glycan array binding signal (z-score) [12]: 0.93
glycan array binding signal (z-score) [13]: -2.09
glycan array binding signal (z-score) [14]: -1.19
glycan array binding signal (z-score) [15]: 1.03
glycan array binding signal (z-score) [16]: -0.486
glycan array binding signal (z-score) (Gal(b1-6)Gal): -1.46
glycan array binding signal (z-score) (Gal3S(b1-3)GalNAc): -0.01
glycan array binding signal (z-score) (Gal3S(b1-3)GlcNAc): 0.003
glycan array binding signal (z-score) [17]: -0.731
glycan array binding signal (z-score) (Gal3S(b1-4)Glc): 1.42
glycan array binding signal (z-score) (Gal3S(b1-4)Glc6S): 0.14
glycan array binding signal (z-score) (Gal3S(b1-4)GlcNAc): 1.09
glycan array binding signal (z-score) (Gal3S(b1-4)GlcNAc6S): -0.754
glycan array binding signal (z-score) [18]: 0.573
glycan array binding signal (z-score) [19]: 1.65
glycan array binding signal (z-score) (Gal3S4S(b1-4)GlcNAc): -0.117
glycan array binding signal (z-score) (Gal3S6S(b1-4)GlcNAc): 0.465
glycan array binding signal (z-score) (Gal3S6S(b1-4)GlcNAc6S): -0.367
glycan array binding signal (z-score) (Gal4S(b1-4)GlcNAc): -0.804
glycan array binding signal (z-score) (Gal4S6S(b1-4)GlcNAc): -0.628
glycan array binding signal (z-score) (Gal6S(b1-3)GlcNAc): -1.16
glycan array binding signal (z-score) (Gal6S(b1-3)GlcNAc6S): 0.099
glycan array binding signal (z-score) (Gal6S(b1-4)Glc): -0.417
glycan array binding signal (z-score) (Gal6S(b1-4)Glc6S): 0.98
glycan array binding signal (z-score) (Gal6S(b1-4)GlcNAc): -0.745
glycan array binding signal (z-score) (Gal6S(b1-4)GlcNAc6S): -0.411
glycan array binding signal (z-score) (GalNAc(a1-3)Gal): -0.687
glycan array binding signal (z-score) (GalNAc(a1-3)GalNAc): 0.85
glycan array binding signal (z-score) [20]: 0.205
glycan array binding signal (z-score) [21]: -1.28
glycan array binding signal (z-score) (GalNAc(b1-3)Gal): 1.38
glycan array binding signal (z-score) [22]: -0.85
glycan array binding signal (z-score) [23]: 0.26
glycan array binding signal (z-score) [24]: -1.16
